PubChem BioAssay AID1259254 – NCATS, 2017

Aim: 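Gene knock-downs that lead to re-replication, shown by excess G2 DNA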 (primary screen)
System: human HCT116 colorectal cancer cells
Reagent: single siRNA against human genes
Duration: 3 days
Read-out: 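Nuclei stained with Hoechst and imaged; cell-cycle phase assigned by DNA content; G2 share scaled per plate, non-targeting siRNA 0%, GMNN siRNA 100%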
Direction: G2 robust z-score and G2 cells, % of GMNN control: higher = more G2 cells, more excess DNA replication
Rule for the call: 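An siRNA counts as active if its G2 robust z-score lies at least 5 MADs above the screen median; here such calls match roughly 38% of GMNN control or more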
In all, the deposit lists about 59,000 reagents; below is a random part of them. In the full data, about 1,550 (2.6%) are marked active. 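G2 share is only a proxy for re-replication; each gene was hit by three separate siRNAs, and active genes were retested.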 The numbers tell different reagents against one gene apart. Further read-outs or replicates are left out here. No sequences are given here. Not stated in the record: the amount of reagent.

ZNF419 #1
- G2 robust z-score: -0.728
- G2 cells, % of GMNN control: -2.16
- Outcome: inactive

ZNF419 #2
- G2 robust z-score: -0.332
- G2 cells, % of GMNN control: 0.63
- Outcome: inactive

ZNF419 #3
- G2 robust z-score: 0.974
- G2 cells, % of GMNN control: 9.82
- Outcome: inactive

ICE1 #1
- G2 robust z-score: 4.64
- G2 cells, % of GMNN control: 35.6
- Outcome: inactive

ICE1 #2
- G2 robust z-score: 3.68
- G2 cells, % of GMNN control: 28.9
- Outcome: inactive

ICE1 #3
- G2 robust z-score: 0.0533
- G2 cells, % of GMNN control: 3.34
- Outcome: inactive

RHOXF2 #1
- G2 robust z-score: 2.87
- G2 cells, % of GMNN control: 23.2
- Outcome: inactive

RHOXF2 #2
- G2 robust z-score: 1.59
- G2 cells, % of GMNN control: 14.1
- Outcome: inactive

RHOXF2 #3
- G2 robust z-score: -0.491
- G2 cells, % of GMNN control: -0.485
- Outcome: inactive

ZNF100 #1
- G2 robust z-score: -0.0417
- G2 cells, % of GMNN control: 2.67
- Outcome: inactive

ZNF100 #2
- G2 robust z-score: 0.00486
- G2 cells, % of GMNN control: 3
- Outcome: inactive

ZNF100 #3
- G2 robust z-score: -0.491
- G2 cells, % of GMNN control: -0.486
- Outcome: inactive

Reformatted: 2 of the entries above.
ICE1 #2: G2 robust z-score = 3.68; G2 cells, % of GMNN control = 28.9; Outcome = inactive
ICE1 #3: G2 robust z-score = 0.0533; G2 cells, % of GMNN control = 3.34; Outcome = inactive
